Laboratory results reported in US20070148773.

System: IHF
Experiment: activity in cells
Conditions: IHF preincubated with attB/attP substrate stimulates wild-type Int intramolecular recombination (1.26% without IHF); intermolecular 13.94 vs 3.47%; purified recombinant protein

TCTGTTACAGGTCACTAATACCATCTAAGTAGTTGATTCATAGTGACTGCATATGTTGTGTTTTACAGTATTATGTAGTCTGTTTTTTATGCAAAATCTAATTTAATATATTGATATTTATATCATTTTACGTTTCTCGTTCAGCTTTTTTATACTAAGTTGGCATTATAAAAAAGCATTGCTTATCAATTTGTTGCAACGAACAGGTCACTATCAGTCAAAATAAAATCATTATTTGATTTC (double strand) [attP]
functional effect: 7.93 % GFP+ cells
